## Cell number after 72 h of treatment

From a melanoma drug combination screen (doi:10.1371/journal.pone.0140310); values rounded.

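The test systems are human melanoma cell lines, treated with a pair of drugs for 72 h and then stained and imaged. Values are the number of DAPI-stained nuclei as a percentage of the DMSO control: 100 is no effect, lower means fewer cells. Concentrations were fixed for each drug; these are the higher of two levels. These are primary screening values without error estimates.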
Only some of the drugs and lines screened are listed, without regard to their results.

Compounds and concentrations:
L-779450 (1000 nM): Oc1cc(-c2nc(-c3ccccc3)[nH]c2-c2ccncc2)ccc1Cl
XAV939 (10000 nM): Oc1nc(-c2ccc(C(F)(F)F)cc2)nc2c1CSCC2
GW441756 (2000 nM): Cn1cc(/C=C2\C(=O)Nc3cccnc32)c2ccccc21
GSK0660 (5000 nM): COC(=O)c1sccc1S(=O)(=O)Nc1ccc(Nc2ccccc2)cc1OC
Src-I1 (10000 nM): COc1cc2ncnc(Nc3ccc(Oc4ccccc4)cc3)c2cc1OC
FH535 (5000 nM): Cc1cc([N+](=O)[O-])ccc1NS(=O)(=O)c1cc(Cl)ccc1Cl
BI-D1870 (1000 nM): CC(C)CCN1c2nc(Nc3cc(F)c(O)c(F)c3)ncc2N(C)C(=O)C1C (stereo not drawn)
dorsomorphin (2000 nM): c1cc(-c2cnn3cc(-c4ccc(OCCN5CCCCC5)cc4)cnc23)ccn1
embelin (6000 nM): CCCCCCCCCCCC1=C(O)C(=O)C=C(O)C1=O
A-769662 (10000 nM): N#Cc1c(O)c2c(-c3ccc(-c4ccccc4O)cc3)csc2[nH]c1=O
U73122 (2000 nM): COc1ccc2c(c1)CCC1C2CCC2(C)C(NCCCCCCN3C(=O)C=CC3=O)CCC12 (stereo not drawn)
NVP-TAE684 (400 nM): COc1cc(N2CCC(N3CCN(C)CC3)CC2)ccc1Nc1ncc(Cl)c(Nc2ccccc2S(=O)(=O)C(C)C)n1
PD173074 (500 nM): CCN(CC)CCCCNc1ncc2cc(-c3cc(OC)cc(OC)c3)c(NC(=O)NC(C)(C)C)nc2n1
T0901317 (7000 nM): O=S(=O)(c1ccccc1)N(CC(F)(F)F)c1ccc(C(O)(C(F)(F)F)C(F)(F)F)cc1
GW2580 (5000 nM): COc1ccc(COc2ccc(Cc3cnc(N)nc3N)cc2OC)cc1
AS-252424 (5000 nM): O=C1NC(=O)/C(=C/c2ccc(-c3ccc(F)cc3O)o2)S1
KU-0063794 (100 nM): COc1ccc(-c2ccc3c(N4CCOCC4)nc(N4C[C@@H](C)O[C@@H](C)C4)nc3n2)cc1CO
KU-55933 (5000 nM): O=c1cc(-c2cccc3c2Sc2ccccc2S3)oc(N2CCOCC2)c1

Drugs	A101D	501mel	A375	A2058	C32
T0901317 + FH535	50.7	51.7	80.2	58.9	86.3
L-779450 + A-769662	81.2	73.3	105	97.4	93.1
GSK0660 + FH535	79.8	95.7	85.0	84.5	93.6
BI-D1870 + GW441756	60.6	72.9	134	88.4	111
dorsomorphin + A-769662	101	62.2	90.5	112	70.6
BI-D1870 + U73122	43.3	91.2	99.3	70.5	79.3
XAV939 + L-779450	85.8	74.4	85.9	79.4	65.3
T0901317 + KU-0063794	88.3	68.3	86.3	88.6	99.2
KU-0063794 + XAV939	67.2	105	107	67.2	116
Src-I1 + GSK0660	66.9	91.5	119	88.3	103
KU-55933 + GW441756	86.1	114	147	118	114
T0901317 + KU-55933	89.2	74.5	131	105	97.9
PD173074 + dorsomorphin	88.8	46.7	114	88.9	78.0
PD173074 + GW441756	104	70.9	182	123	93.9
GW2580 + L-779450	60.7	44.3	69.9	107	87.0
NVP-TAE684 + XAV939	90.9	108	103	64.7	98.5
T0901317 + L-779450	61.6	62.8	80.3	93.9	85.2
GW441756 + T0901317	87.7	68.4	113	88.3	101
AS-252424 + KU-0063794	105	72.0	130	95.3	106
T0901317 + embelin	88.6	63.3	128	104	97.7
A-769662 + KU-0063794	97.1	98.1	135	115	105
A-769662 + NVP-TAE684	105	71.6	112	64.5	103
GW441756 + Src-I1	58.0	72.8	154	74.2	78.4
L-779450 + AS-252424	60.7	73.1	68.3	107	78.6
GW2580 + BI-D1870	67.7	62.6	127	111	91.3
embelin + U73122	111	46.9	96.8	94.5	94.3
FH535 + NVP-TAE684	78.9	72.4	81.6	56.8	76.8
GW441756 + embelin	91.9	104	162	85.8	111
T0901317 + GW2580	103	59.8	91.3	91.0	99.0
PD173074 + A-769662	103	92.6	107	81.5	97.9
dorsomorphin + BI-D1870	52.6	49.2	72.6	59.2	55.8
dorsomorphin + U73122	77.5	67.2	65.2	75.4	39.4

The first 4 entries again:

| Drugs | A101D | 501mel | A375 | A2058 | C32 |
|---|---|---|---|---|---|
| T0901317 + FH535 | 50.7 | 51.7 | 80.2 | 58.9 | 86.3 |
| L-779450 + A-769662 | 81.2 | 73.3 | 105 | 97.4 | 93.1 |
| GSK0660 + FH535 | 79.8 | 95.7 | 85.0 | 84.5 | 93.6 |
| BI-D1870 + GW441756 | 60.6 | 72.9 | 134 | 88.4 | 111 |